Library screening results

Sequences of proteins named here, by UniProt entry; tags and fusion partners are left off.
UniProt E9BF75, entry or part of it: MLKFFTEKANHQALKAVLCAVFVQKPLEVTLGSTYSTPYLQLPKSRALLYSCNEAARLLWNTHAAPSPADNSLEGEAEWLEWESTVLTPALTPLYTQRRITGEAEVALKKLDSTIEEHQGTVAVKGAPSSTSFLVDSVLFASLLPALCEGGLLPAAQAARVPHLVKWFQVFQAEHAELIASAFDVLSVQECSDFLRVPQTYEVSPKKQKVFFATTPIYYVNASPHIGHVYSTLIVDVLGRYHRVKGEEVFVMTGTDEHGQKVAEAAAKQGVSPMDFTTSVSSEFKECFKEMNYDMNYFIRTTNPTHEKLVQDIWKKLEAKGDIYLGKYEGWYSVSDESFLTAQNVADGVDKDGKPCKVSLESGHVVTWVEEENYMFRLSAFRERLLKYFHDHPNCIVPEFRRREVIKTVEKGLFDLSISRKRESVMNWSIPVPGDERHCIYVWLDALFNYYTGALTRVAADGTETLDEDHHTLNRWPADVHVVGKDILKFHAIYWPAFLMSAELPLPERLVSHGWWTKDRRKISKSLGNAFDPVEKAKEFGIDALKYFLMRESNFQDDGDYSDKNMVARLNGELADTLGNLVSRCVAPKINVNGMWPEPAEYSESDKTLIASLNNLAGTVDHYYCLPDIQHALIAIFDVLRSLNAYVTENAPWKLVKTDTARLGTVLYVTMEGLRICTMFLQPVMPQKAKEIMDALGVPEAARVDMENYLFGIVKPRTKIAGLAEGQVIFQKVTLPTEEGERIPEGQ

From ChEMBL document CHEMBL3988442, “University of Dundee, Small-Polar-MMV Screening Library” (2021).

All values are in %.
How 0% and 100% were set is not recorded. Most values in the screen are low, and negative values occur.
This is an unselected part of the compounds tested.
A dash means the value is not listed here; it may have been measured.

LdMetRS: 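Methionyl-tRNA synthetase (putative), Leishmania donovani (UniProt E9BF75). Primary screen of methionyl-tRNA synthetase; the read-out is not stated. The test concentration is not given. The values are filed as inhibition. Of about 68,000 compounds tested this way, about 24 (0.035%) reached 50% or more in at least one test.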
Mtb heat-shock: 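Assay on Mycobacterium tuberculosis, filed only as a heat shock assay from Cornell; the read-out is not stated. The concentration is filed as 10 mM, unlikely as a test dose, so the dose is not known. Higher reads as stronger inhibition (inferred: compounds with an IC50 in retests scored well above the rest). Of about 69,000 compounds tested this way, about 930 (1.4%) reached 50% or more in at least one test.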

SMILES: O=C(c1cccnc1O)N1CCOC(Cc2cccc(C(F)(F)F)c2)C1 (stereo unspecified)
LdMetRS: 0.6849%
Mtb heat-shock: -0.2554%

SMILES: O=C(COc1cccc2c1CCC2=O)NCc1ccccc1F
LdMetRS: 14.08%
Mtb heat-shock: -13.04%

SMILES: O=C(O)C(F)(F)F.[H][C@@]12COC[C@H](C(=O)N3CCC(F)CC3)[C@]1([H])CN(C1CCOCC1)C2
Mtb heat-shock: -3.747%

SMILES: Cc1ccc(N2CCC3(CC2)COCCN(c2nccs2)C3)nn1
LdMetRS: 32.52%

SMILES: CCCS(=O)(=O)N1CCn2cc(CNc3ccccn3)nc2C1.O=C(O)C(F)(F)F
Mtb heat-shock: -35.64%

SMILES: Cc1nc(C)n(CC2CN(CC(=O)Nc3ccncc3)CCO2)n1 (stereo unspecified)
LdMetRS: 6.516%
Mtb heat-shock: 8.785%

SMILES: COC(=O)c1sccc1S(=O)(=O)NCCC(O)c1ccoc1 (stereo unspecified)
LdMetRS: -2.158%
Mtb heat-shock: -2.231%

SMILES: COCC1c2c(cnn2C)CCN1C(=O)c1ccc2c(c1)OCO2 (stereo unspecified)
LdMetRS: 9.774%
Mtb heat-shock: -25.46%

SMILES: CC(C)NC(=O)[C@@H]1CC[C@@H]2[C@@H](CCN2Cc2ccc3ccccc3n2)O1
LdMetRS: 16.67%

SMILES: CC/C=C(/C)C(=O)NS(=O)(=O)c1ccc(C#N)c(C(F)(F)F)c1
LdMetRS: 12.11%
Mtb heat-shock: -3.191%

SMILES: O=C(N1CCCO1)[C@]12COC[C@H]1CN(Cc1cccnc1)C2
LdMetRS: 8.014%

SMILES: O=C(CC1CC1)NCc1cn2c(n1)CN(C(=O)c1cccnc1)CC2
LdMetRS: 10.1%
Mtb heat-shock: 6.717%

SMILES: CC(C)(C)S(=O)(=O)CCNC(=O)c1cnc(-c2ccccc2)nc1
LdMetRS: 3.559%
Mtb heat-shock: -15.22%

SMILES: Cc1noc(C)c1CN1CCc2ncnc(-c3ccccc3)c2CC1.O=C(O)C(F)(F)F
Mtb heat-shock: -15.97%

SMILES: CC(=O)c1ccc(OCC(=O)NC(C)CCc2ccco2)cc1 (stereo unspecified)
LdMetRS: 13.41%
Mtb heat-shock: -4.184%

SMILES: Cc1ccc(C(=O)N2CCCN(Cc3cccs3)CC2)n1C
LdMetRS: 11.58%
Mtb heat-shock: -7.124%

SMILES: CC(C)N1CCC(CC(=O)NCc2cc(O)ncn2)CC1
LdMetRS: 16.62%
Mtb heat-shock: -117.4%

SMILES: Cc1cc(=O)n2nc(Oc3ccc(Cl)c(C)c3)sc2n1
LdMetRS: 6.811%
Mtb heat-shock: -17.33%

SMILES: CSCc1cc(F)ccc1CNCc1cccc(O)c1
LdMetRS: 23.72%
Mtb heat-shock: 11.46%

SMILES: c1ccc(-n2cncn2)c(CNCCn2cccn2)c1
LdMetRS: 15.49%
Mtb heat-shock: 3.215%

SMILES: [H][C@@]12CCN(C(=O)C3CCOCC3)C[C@@]1([H])O[C@H](c1ccncn1)C2
Mtb heat-shock: 5.788%

SMILES: CCc1nc(CCNC(=O)C2CCOC2)sc1C (stereo unspecified)
LdMetRS: 7.619%
Mtb heat-shock: 2.987%

SMILES: CC(C)(C)SCC(=O)NCCc1csc(N2CCCC2)n1
LdMetRS: 19.1%
Mtb heat-shock: -0.9097%

SMILES: Cc1ccc(C#N)c(N2CCC3(CCCN(C4CCOCC4)C3=O)C2)n1 (stereo unspecified)
LdMetRS: 15.34%
Mtb heat-shock: -20.99%

SMILES: CC(CNC1CCN(Cc2ccncc2)CC1)c1ccc(F)cc1F (stereo unspecified)
LdMetRS: 7.107%
Mtb heat-shock: 1.198%

SMILES: O=C(C1=CCCC1)N1CCC[C@]2(C[C@@H](OCc3ccccn3)CO2)C1
LdMetRS: 6.84%

SMILES: CCOc1ccc(Cl)cc1CCNC(=O)Cn1nc(C)ccc1=O
LdMetRS: 1.961%
Mtb heat-shock: -3.24%

Once more, the final 3:

| SMILES | LdMetRS | Mtb heat-shock |
|---|---|---|
| `CC(CNC1CCN(Cc2ccncc2)CC1)c1ccc(F)cc1F` (stereo unspecified) | 7.107% | 1.198% |
| `O=C(C1=CCCC1)N1CCC[C@]2(C[C@@H](OCc3ccccn3)CO2)C1` | 6.84% | - |
| `CCOc1ccc(Cl)cc1CCNC(=O)Cn1nc(C)ccc1=O` | 1.961% | -3.24% |